Results deposited as PubChem BioAssay AID1259308 (NCATS, 2017).
The deposit covers about 59,000 reagents; this is a part drawn at random. About 1,510 of all reagents (2.6%) were called active. 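Calls use total luciferase alone and ignore viability, so some active siRNAs may act by altering cell number.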 Entries without a mark were called inactive. Reagents against one gene are numbered here.

Screen: 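Candidate targets for better recombinant protein yield in mammalian cells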 (primary screen)
System: human HEK293 embryonic kidney cells stably expressing firefly luciferase (HEK-CMV-Luc2-Hygro)
Reagent: single siRNA against human genes, 0.8 pmol siRNA per well
Duration: 72 h
Measured: 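Reporter luminescence and viable-cell signal on separate replicate plates, given as percent of non-targeting control and median/MAD z-scores, plus per-cell luciferase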
Direction: total luciferase, z-score and total luciferase, % of control: higher = more reporter protein produced; luciferase per cell, z-score: higher = more reporter output per viable cell; viable cells, % of control: higher = more viable cells
Active means: 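An siRNA counts as active if its total luciferase robust z-score exceeds 3; genes with two or more such siRNAs out of three were retested with fresh siRNAs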
Calls: active = raised luciferase; inactive = no rise

Gene	reagent no.	total luciferase, z-score	total luciferase, % of control	luciferase per cell, z-score	viable cells, % of control
TMPRSS11E	1	0.411	90.1	0.306	92.8
TMPRSS11E	2	-0.211	77.7	-0.7	104
TMPRSS11E	3	-0.103	79.8	1.64	57.9
OR1E1	1	2.16	125	1.11	104
OR1E1	2	3.26 (active)	147	2.92	76
OR1E1	3	-2.88	24.7	-3.06	61.8
C12orf56	1	-0.03	81.3	0.641	76.7
C12orf56	2	-0.216	77.6	-0.147	90.1
C12orf56	3	-0.99	62.2	-1.23	96.1
HES4	1	6.48 (active)	211	3.21	101
HES4	2	-1.37	54.5	-1.04	80.2
HES4	3	-0.404	73.8	-0.502	94.2
CLCNKA	1	-0.117	79.6	-0.283	95.8
CLCNKA	2	0.511	92.1	-0.0473	104
CLCNKA	3	1.69	115	0.541	112

Part of the list above, limited to “viable cells, % of control”.
OR1E1 #1: 104
OR1E1 #2: 76 (active)
OR1E1 #3: 61.8
C12orf56 #1: 76.7

More records follow:
Gene	reagent no.	total luciferase, z-score	total luciferase, % of control	luciferase per cell, z-score	viable cells, % of control
ZSWIM6	1	3.24 (active)	146	2.34	88.2
ZSWIM6	2	1.38	109	1.32	86.3
ZSWIM6	3	0.376	89.4	-0.451	112
CSRP3	1	0.355	89	0.112	96.5
CSRP3	2	0.234	86.5	-0.851	121
CSRP3	3	-0.738	67.2	-0.494	85.5
DHDDS	1	0.0169	82.2	-0.577	107
DHDDS	2	0.145	84.8	-0.73	115
DHDDS	3	0.872	99.2	0.166	106
UBE2E2	1	-1.05	61	-0.377	75.3
UBE2E2	2	-2.02	41.6	-1.3	65.5
UBE2E2	3	-0.782	66.3	-0.398	82.3
RAB11FIP2	1	-0.325	75.4	-0.711	102
RAB11FIP2	2	-0.975	62.5	-1.19	95.4
RAB11FIP2	3	2.23	126	1.73	89.3
USHBP1	1	-0.246	77	0.0357	85.2
USHBP1	2	0.385	89.5	0.271	93.2
USHBP1	3	-1.59	50.2	-1.74	88.6
KRTAP5-9	1	-0.936	63.3	-0.893	89.5
KRTAP5-9	2	-0.771	66.6	-0.0562	75.5
KRTAP5-9	3	1.43	110	1.05	93.5
SETD9	1	0.294	87.7	0.601	83.7
SETD9	2	-0.184	78.2	-0.702	105
SETD9	3	-0.759	66.8	-0.497	85.1
